These are literature values, as cited in US6632806B1, “Neurologically-active compounds” (The University of Sydney, priority 1997, dated 2003).

This data set has as its target GABAC receptors. The conditions noted are these: read-out: KD (agonist); cited from earlier work.

Structures are written as SMILES.

Consider `NCCCC(=O)O` [GABA, γ-Aminobutyric acid], for which the Kd (as a rule, the free concentration of one partner at which half of the binding sites on the other are occupied at equilibrium, for simple one-to-one binding) was 1700 nM.
